Test results reported in patent publication US20260199349A1, “Treatment of Cancers Having Mutations in WNT Pathway Tumour Suppressors” (RECURSION PHARMACEUTICALS, INC., priority 2022, published 2026).
For at least one compound, name, drawing or mass did not settle the structure.

Assays:
HCT116 cells = settings: single agent; APC WT CRC cell line; cited from earlier work
[1] = system: LI6612 AXIN1 mutant HCC PDX model; test: REC-4881 and 4 FDA approved MEK inhibitors in LI6612 AXIN1 mutant HCC PDX model; type: in vivo, mouse; settings: doses as in Table 2, 15 days
Text: (§1) Tumour Inoculation: LI6612 PDX mouse model is a liver cancer model that harbours an AXIN1 mutation and was run at Crown Biosciences in China. Tumour fragments from stock mice were harvested and used for inoculation into mice. Each mouse was inoculated subcutaneously in the right upper flank with primary human tumour xenograft model LI6612 tumour fragment (2-3 mm in diameter) for tumour development.
Randomization: The randomization started from when the mean tumour size reached approximately 170 mm^3. 60 NCG mice were enrolled in the study. All animals were randomly allocated to […]. Randomization was performed based on the “Matched distribution” method. The date of randomization was denoted as day 0.
Tumour Growth Inhibition (TGI): Methods of TGI are known in the art. Tumour volumes were measured three per week after randomization in two dimensions using a caliper, and the volume was expressed in mm^3 using the formula: V=(L×W×W)/2, where V is tumour volume, L is tumour length (the longest tumour dimension) and W is tumour width (the longest tumour dimension perpendicular to L). % TGI was calculated using the formula % TGI=(TV vehicle−TV treatment)/(TV vehicle−TV initial)*100 for all mice (Wong, H, et al. Clin Cancer Res., 2012, 18 (14): 3846-3855). […]

[2] = system: LI6612 AXIN1 mutant HCC PDX model; test: REC-4881 versus cabozantinib in LI6612 AXIN1 mutant HCC PDX model; type: in vivo, mouse; settings: cabozantinib 10 mg/kg PO QD
Text: as §1
Randomization: The randomization started from when the mean tumour size reached approximately 170 mm^3. 50 NCG mice were enrolled in the study. All animals were randomly allocated to 5 study groups. Randomization was performed based on the “Matched distribution” method. The date of randomization was denoted as day 0.
Tumour Growth Inhibition (TGI): Methods of TGI are known in the art. Tumour volumes were measured three per week after randomization in two dimensions using a caliper, and the volume was expressed in mm^3 using the formula: V=(L×W×W)/2, where Vis tumour volume, L is tumor length (the longest tumour dimension) and W is tumour width (the longest tumour dimension perpendicular to L). % TGI was calculated using the formula % TGI=(TV vehicle−TV treatment)/(TV vehicle−TV initial)*100 for all mice (Wong, H, et al. Clin Cancer Res., 2012, 18 (14): 3846-3855).
Treatment Arms: 10 mice per arm were treated with either Vehicle, cabozantinib, or REC-4881 for 21 days. […]

Row | Structure (SMILES) | viability of HCT116 cells in colony forming assay (HCT116 cells) | tumour volume (FIG. 2) [1] | response of model to treatment (FIG. 1A) [2]
1 | CC(=O)Nc1cccc(-n2c(=O)n(C3CC3)c(=O)c3c(Nc4ccc(I)cc4F)n(C)c(=O)c(C)c32)c1 [Trametinib] | reduce viability of HCT116 cells in a dose dependent manner | decreased | –
2 | COc1cc2nccc(Oc3ccc(NC(=O)C4(C(=O)Nc5ccc(F)cc5)CC4)cc3)c2cc1OC [Cabozantinib, reference compound] | – | – | resistant
3 | Cn1cnc2c(F)c(Nc3ccc(Br)cc3Cl)c(C(=O)NOCCO)cc21 [Selumetinib, reference compound] | – | decreased | –
